According to publication doi:10.1101/377275:
Like-named read-outs stand apart in the source and are kept apart here. These are yes or no findings as the source states them, for the method shown. Binding seen in cells or lysates may run through a third protein. These calls come from enrichment with a bait or labelling near it, and not all partners need be listed. For some assays here: No binding means not detected with the bait. For some assays here: Sequences can lack the tags named with a protein. One block for each molecule: values may come before it.

The chains behind the UniProt entries cited, without tags or fusion partners.
UniProt Q9WVL2: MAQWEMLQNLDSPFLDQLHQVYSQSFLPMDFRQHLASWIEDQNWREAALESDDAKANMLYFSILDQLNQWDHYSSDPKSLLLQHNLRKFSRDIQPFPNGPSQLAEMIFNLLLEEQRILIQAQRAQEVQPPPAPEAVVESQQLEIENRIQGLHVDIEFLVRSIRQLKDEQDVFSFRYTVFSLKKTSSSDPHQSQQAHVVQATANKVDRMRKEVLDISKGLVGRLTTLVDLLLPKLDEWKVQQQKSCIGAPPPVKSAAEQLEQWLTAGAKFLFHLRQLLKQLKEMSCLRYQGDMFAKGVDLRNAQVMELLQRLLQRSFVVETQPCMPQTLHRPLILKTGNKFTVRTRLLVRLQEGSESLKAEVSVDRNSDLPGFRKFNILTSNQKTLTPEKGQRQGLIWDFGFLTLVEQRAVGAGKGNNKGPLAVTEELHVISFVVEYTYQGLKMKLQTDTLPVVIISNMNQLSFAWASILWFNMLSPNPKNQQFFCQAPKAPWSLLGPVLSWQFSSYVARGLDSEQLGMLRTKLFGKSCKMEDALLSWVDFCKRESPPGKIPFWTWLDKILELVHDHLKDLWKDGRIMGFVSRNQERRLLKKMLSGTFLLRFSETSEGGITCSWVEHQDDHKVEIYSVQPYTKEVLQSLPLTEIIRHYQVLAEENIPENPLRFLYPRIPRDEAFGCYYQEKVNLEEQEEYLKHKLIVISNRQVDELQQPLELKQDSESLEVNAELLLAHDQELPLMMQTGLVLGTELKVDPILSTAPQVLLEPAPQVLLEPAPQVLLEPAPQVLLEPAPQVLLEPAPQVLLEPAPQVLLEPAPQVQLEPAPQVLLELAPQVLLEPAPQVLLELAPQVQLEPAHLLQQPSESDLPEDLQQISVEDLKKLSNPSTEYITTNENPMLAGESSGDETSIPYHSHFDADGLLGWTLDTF
UniProt Q9WTM5: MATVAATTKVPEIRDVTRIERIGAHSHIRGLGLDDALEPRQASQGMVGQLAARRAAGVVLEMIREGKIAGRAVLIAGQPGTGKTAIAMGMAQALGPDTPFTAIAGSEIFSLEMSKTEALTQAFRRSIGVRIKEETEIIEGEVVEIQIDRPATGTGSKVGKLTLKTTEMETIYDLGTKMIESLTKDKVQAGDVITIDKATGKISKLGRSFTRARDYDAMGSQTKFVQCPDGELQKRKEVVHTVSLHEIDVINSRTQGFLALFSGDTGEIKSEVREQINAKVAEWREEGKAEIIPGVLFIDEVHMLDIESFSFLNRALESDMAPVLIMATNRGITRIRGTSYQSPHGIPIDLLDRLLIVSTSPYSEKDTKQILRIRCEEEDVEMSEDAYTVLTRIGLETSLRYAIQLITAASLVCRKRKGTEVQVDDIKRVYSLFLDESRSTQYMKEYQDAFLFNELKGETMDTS
UniProt Q8CHI8: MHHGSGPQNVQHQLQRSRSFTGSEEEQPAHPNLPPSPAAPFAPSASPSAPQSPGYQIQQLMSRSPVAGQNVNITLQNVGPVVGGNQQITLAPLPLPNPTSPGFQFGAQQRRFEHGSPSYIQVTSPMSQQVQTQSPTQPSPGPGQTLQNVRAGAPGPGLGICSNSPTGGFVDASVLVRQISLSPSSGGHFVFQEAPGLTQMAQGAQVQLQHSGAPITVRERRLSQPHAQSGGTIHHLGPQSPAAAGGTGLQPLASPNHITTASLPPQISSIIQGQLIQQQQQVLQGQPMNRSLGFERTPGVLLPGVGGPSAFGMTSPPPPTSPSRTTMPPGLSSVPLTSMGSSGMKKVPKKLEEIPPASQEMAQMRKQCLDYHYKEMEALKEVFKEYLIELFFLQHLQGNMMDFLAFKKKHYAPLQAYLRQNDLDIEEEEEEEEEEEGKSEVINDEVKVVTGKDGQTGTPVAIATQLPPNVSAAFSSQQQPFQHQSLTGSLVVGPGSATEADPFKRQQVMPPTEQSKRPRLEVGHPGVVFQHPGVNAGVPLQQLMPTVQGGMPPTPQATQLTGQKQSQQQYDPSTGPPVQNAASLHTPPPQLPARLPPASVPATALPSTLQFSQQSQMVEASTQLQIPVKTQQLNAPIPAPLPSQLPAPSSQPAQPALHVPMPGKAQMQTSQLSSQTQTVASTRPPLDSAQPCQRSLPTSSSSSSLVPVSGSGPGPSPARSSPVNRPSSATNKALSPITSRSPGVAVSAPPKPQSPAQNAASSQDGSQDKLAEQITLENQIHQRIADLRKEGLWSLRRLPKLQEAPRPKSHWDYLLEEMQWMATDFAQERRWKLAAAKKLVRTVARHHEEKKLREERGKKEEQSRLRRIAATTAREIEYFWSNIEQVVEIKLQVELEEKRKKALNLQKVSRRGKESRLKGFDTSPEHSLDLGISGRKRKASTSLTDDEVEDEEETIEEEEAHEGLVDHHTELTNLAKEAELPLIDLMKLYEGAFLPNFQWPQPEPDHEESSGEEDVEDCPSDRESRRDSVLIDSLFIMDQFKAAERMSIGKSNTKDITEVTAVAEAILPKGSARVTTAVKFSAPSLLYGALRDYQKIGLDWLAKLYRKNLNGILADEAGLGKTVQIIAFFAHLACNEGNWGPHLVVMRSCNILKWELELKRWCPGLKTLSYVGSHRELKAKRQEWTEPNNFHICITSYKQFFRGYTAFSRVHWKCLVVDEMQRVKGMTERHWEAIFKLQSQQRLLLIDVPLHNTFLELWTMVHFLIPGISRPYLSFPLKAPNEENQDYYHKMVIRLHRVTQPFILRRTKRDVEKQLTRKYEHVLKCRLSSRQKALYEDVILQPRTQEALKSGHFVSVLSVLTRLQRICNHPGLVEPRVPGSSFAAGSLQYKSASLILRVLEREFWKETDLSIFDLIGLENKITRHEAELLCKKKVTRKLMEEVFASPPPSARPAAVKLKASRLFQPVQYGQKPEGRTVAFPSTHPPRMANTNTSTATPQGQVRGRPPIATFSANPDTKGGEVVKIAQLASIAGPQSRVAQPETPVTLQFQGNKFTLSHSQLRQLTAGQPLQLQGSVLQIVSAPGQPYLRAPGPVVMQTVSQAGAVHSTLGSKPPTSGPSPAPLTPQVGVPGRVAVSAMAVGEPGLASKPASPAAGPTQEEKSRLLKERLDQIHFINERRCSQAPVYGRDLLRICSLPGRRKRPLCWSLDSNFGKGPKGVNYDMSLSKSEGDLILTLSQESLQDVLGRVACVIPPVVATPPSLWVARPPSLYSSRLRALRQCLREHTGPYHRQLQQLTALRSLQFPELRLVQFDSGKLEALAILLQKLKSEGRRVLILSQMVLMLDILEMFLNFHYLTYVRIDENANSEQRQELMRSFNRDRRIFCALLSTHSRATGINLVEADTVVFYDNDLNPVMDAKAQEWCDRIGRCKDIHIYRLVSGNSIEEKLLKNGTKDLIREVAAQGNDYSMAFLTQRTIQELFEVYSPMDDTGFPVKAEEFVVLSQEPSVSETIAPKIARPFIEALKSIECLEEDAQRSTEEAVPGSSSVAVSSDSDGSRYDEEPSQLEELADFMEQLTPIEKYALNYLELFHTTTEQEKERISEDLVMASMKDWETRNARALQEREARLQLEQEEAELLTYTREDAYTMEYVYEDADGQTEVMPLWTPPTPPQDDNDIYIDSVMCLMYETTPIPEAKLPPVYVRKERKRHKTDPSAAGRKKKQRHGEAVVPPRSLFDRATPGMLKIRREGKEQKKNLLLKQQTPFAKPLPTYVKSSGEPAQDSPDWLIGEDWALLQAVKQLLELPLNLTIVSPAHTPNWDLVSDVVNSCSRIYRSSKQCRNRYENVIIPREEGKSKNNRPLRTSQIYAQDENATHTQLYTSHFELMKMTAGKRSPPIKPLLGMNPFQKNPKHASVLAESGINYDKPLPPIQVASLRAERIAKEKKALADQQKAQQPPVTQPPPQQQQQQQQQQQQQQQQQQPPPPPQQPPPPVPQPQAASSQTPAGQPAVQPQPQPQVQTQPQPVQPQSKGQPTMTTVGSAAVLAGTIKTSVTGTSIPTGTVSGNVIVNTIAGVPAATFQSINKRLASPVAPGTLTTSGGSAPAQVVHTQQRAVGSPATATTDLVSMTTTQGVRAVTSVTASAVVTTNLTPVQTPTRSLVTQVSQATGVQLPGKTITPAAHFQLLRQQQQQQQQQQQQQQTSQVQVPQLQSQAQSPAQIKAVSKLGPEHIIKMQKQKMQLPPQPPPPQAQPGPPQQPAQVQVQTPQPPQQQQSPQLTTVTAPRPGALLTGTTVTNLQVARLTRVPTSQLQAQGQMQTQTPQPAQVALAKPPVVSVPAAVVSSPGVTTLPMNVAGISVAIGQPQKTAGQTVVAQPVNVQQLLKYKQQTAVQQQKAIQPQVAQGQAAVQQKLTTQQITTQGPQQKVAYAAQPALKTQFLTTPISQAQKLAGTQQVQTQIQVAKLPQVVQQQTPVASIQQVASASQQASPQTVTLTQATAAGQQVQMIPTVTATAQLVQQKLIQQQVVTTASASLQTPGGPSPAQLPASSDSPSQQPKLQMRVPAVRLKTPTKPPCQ
UniProt P60122: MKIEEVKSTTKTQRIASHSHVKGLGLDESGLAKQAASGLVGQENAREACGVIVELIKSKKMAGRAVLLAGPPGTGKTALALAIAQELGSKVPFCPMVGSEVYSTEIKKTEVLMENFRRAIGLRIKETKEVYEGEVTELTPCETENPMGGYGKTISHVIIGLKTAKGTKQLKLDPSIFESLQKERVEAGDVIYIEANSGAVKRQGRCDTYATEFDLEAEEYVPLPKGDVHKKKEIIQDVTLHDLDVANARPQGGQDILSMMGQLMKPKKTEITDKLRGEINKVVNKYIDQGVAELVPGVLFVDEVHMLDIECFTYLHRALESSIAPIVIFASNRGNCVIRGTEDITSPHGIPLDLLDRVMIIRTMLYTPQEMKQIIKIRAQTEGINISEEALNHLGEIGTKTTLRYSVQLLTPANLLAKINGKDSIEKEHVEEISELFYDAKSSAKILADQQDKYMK

Key:
Assay in all cases: proximity labelling
[1] = target: myc-tagged STAT2-BirA* fusion protein (mouse) (UniProt Q9WVL2)
[2] = target: T1, myc-tagged IRF9-BirA* fusion protein (mouse) (UniProt Q61179)
T1 sequence: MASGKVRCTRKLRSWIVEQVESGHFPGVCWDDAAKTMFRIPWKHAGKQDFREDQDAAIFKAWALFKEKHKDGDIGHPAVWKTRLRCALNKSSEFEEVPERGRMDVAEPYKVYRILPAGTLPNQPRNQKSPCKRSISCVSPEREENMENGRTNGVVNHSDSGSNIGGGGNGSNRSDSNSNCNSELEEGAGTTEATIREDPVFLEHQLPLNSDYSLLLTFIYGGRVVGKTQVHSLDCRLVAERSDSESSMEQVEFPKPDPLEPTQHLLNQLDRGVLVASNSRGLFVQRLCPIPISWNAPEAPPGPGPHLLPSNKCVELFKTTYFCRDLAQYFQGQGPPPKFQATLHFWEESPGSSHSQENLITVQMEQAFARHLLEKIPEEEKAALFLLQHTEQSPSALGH

[3] = target: T2, myc-tagged IRF9-BirA* fusion protein (mouse), Q61179; conditions: remark: other sources report otherwise
T2 chain: T1 sequence

[4] = target: T2, myc-tagged IRF9-BirA* fusion protein …; conditions: remark: other sources report otherwise
[5] = target: myc-tagged STAT2-BirA* fusion protein (mouse) (UniProt Q9WVL2); remark: listed apart in the source
[6] = target: myc-tagged STAT2-BirA* fusion protein (mouse) (UniProt Q9WVL2); remark: listed apart in the source

- binding [1]: no binding
Molecule: RVB2 (from UniProt Q9WTM5 1-463)

- binding [5]: binds
- binding [6]: binds
B2: interferon regulatory factor 9 (IRF9) (protein, UniProt Q61179 1-399)
chain: T1 sequence

Further lines, the molecule ahead of its results:

Molecule: Ep400 (from UniProt Q8CHI8 1-3072)
- binding [1]: binds
- binding [2]: binds

Molecule: RVB1 (from UniProt P60122 1-456)
- binding [1]: no binding

B1: STAT1, P42225 1-749 (protein)
chain: MSQWFELQQLDSKFLEQVHQLYDDSFPMEIRQYLAQWLEKQDWEHAAYDVSFATIRFHDLLSQLDDQYSRFSLENNFLLQHNIRKSKRNLQDNFQEDPVQMSMIIYNCLKEERKILENAQRFNQAQEGNIQNTVMLDKQKELDSKVRNVKDQVMCIEQEIKTLEELQDEYDFKCKTSQNREGEANGVAKSDQKQEQLLLHKMFLMLDNKRKEIIHKIRELLNSIELTQNTLINDELVEWKRRQQSACIGGPPNACLDQLQTWFTIVAETLQQIRQQLKKLEELEQKFTYEPDPITKNKQVLSDRTFLLFQQLIQSSFVVERQPCMPTHPQRPLVLKTGVQFTVKSRLLVKLQESNLLTKVKCHFDKDVNEKNTVKGFRKFNILGTHTKVMNMEESTNGSLAAELRHLQLKEQKNAGNRTNEGPLIVTEELHSLSFETQLCQPGLVIDLETTSLPVVVISNVSQLPSGWASILWYNMLVTEPRNLSFFLNPPCAWWSQLSEVLSWQFSSVTKRGLNADQLSMLGEKLLGPNAGPDGLIPWTRFCKENINDKNFSFWPWIDTILELIKNDLLCLWNDGCIMGFISKERERALLKDQQPGTFLLRFSESSREGAITFTWVERSQNGGEPDFHAVEPYTKKELSAVTFPDIIRNYKVMAAENIPENPLKYLYPNIDKDHAFGKYYSRPKEAPEPMELDDPKRTGYIKTELISVSEVHPSRLQTTDNLLPMSPEEFDEMSRIVGPEFDSMMSTV
- binding [3]: no binding
- binding [4]: no binding
